# Screening data, single-dose tests

By UniProt entry, the sequences of proteins in these tests, tags left out. Residues count along the entry.
UniProt Q4DA54, 1-478: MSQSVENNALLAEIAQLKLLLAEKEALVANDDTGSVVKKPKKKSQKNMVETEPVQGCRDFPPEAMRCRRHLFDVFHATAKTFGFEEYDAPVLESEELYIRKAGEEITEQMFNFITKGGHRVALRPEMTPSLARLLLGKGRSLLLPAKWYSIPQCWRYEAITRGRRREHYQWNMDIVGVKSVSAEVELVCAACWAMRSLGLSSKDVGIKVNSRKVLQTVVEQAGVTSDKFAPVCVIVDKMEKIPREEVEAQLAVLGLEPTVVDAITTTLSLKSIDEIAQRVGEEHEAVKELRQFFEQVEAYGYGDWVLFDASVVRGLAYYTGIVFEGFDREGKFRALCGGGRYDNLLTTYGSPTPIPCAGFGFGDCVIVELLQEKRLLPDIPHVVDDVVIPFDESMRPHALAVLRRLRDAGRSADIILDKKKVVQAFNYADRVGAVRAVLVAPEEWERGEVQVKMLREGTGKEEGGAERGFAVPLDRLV
UniProt A4I591, 1-473: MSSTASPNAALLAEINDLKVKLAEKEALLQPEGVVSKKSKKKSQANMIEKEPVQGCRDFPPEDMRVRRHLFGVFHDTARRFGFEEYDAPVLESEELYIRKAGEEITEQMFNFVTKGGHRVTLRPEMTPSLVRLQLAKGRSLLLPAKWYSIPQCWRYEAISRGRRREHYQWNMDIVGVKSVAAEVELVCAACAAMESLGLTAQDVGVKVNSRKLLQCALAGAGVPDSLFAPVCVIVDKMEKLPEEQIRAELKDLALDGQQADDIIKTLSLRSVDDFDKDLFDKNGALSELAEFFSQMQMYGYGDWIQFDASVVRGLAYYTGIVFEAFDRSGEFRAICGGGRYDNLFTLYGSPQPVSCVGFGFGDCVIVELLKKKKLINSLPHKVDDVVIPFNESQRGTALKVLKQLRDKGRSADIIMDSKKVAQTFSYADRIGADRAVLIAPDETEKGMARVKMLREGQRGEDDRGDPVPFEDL

Measurements from “University of Dundee, Small-Polar-MMV Screening Library” (2021), ChEMBL document CHEMBL3988442.

Each number is a percent effect as filed. The controls that fix the scale are not given in the record; negative values are as filed. This is an unselected part of the compounds tested. A dash means the value is not listed here; it may have been measured.

Toxoplasma: 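Assay of Toxoplasma gondii numbers, read through their beta-galactosidase reporter with a colour substrate. Compounds at 10 µM. The record gives no direction; the compounds picked for IC50 retests had high values, so higher reads as fewer parasites. Size under these conditions: about 67,000 compounds, about 260 of them at 50% or above in at least one test.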
TcHisRS: 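Histidine-tRNA ligase, Trypanosoma cruzi CL Brener (UniProt Q4DA54). Enzyme assay of histidyl-tRNA synthetase; the read-out is not stated. Tested at 30 µM. The record gives no direction; compounds that gave an IC50 in retests scored well above the rest, so higher reads as stronger inhibition. About 69,000 compounds were tested under these conditions; 0.045% (about 31) showed 50% or more at least once.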
LiHisRS: 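Enzyme assay of histidyl-tRNA synthetase; the read-out is not stated. Target: Histidine-tRNA ligase, Leishmania infantum (UniProt A4I591). Tested at 30 µM. The record gives no direction; compounds that gave an IC50 in retests scored well above the rest, so higher reads as stronger inhibition. The assay is labelled LdHisRS but filed under L. infantum. About 69,000 compounds were tested under these conditions; 0.6% (about 410) showed 50% or more at least once.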
T. brucei: 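Whole-parasite assay of Trypanosoma brucei over 72 hours; the read-out is not stated. Compounds at 30 µM. Higher reads as stronger inhibition (inferred: compounds with an IC50 in retests scored well above the rest). Values scatter widely below zero; nearly all retest evidence comes from the higher of the two concentrations used. Size under these conditions: about 64,000 compounds, about 940 of them at 50% or above in at least one test.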

| Compound | Toxoplasma | TcHisRS | LiHisRS | T. brucei |
|---|---|---|---|---|
| `COCCO[C@H]1CCN(C(=O)c2cc(C)on2)[C@H]1Cc1ccccc1` | 3.168 | 2.256 | 14.63 | 2.559 |
| `CN(C)C(=O)COCC1CN(Cc2ccoc2)Cc2ncn(C)c21.O=C(O)C(F)(F)F.O=C(O)C(F)(F)F` (stereo not shown) | -13.96 | - | - | -34.83 |
| `CS(=O)(=O)NCC1CCCN(Cc2ccccc2F)C1` (stereo not shown) | 8.721 | 2.762 | 0 | -12.86 |
| `O=C(c1ccc(Br)o1)N1CCCCC1Cn1cccn1` (stereo not shown) | 1.4 | -1.149 | 6.154 | 15.79 |
| `O=C(Cc1ccccc1)N1CCC2(CCN2Cc2ccc(F)cc2)C1` (stereo not shown) | - | 1.942 | 13.46 | - |
| `Cc1cnn(C2CN(Cc3nnc(C4CC4)o3)C2)c1` | -1.908 | 41.27 | 30.14 | 93.44 |
| `c1cnnc(N2CCCC(NCc3ccc(-n4cncn4)cc3)C2)c1` (stereo not shown) | 4.517 | 2.521 | -31.4 | 26.2 |
| `Cc1ccc(C(=O)Nc2nn[nH]n2)s1` | 9.278 | 8.808 | 12.36 | 5.356 |
| `Cc1cc(F)c(S(=O)(=O)NCC(C)(C)N)cc1F` | - | 5.941 | 0 | - |
| `CC(=O)CSc1nc2c(cnn2CCO)c(=O)[nH]1` | 1.597 | 5.528 | 13.48 | -20.58 |
| `COc1ccc2cc(CN(C)C(C)c3nc(C(C)(C)C)no3)ccc2c1` (stereo not shown) | 9.56 | 7.182 | 12.68 | -27.81 |
| `c1ccc(Cc2n[nH]c(C3CCOC3)n2)cc1` (stereo not shown) | 13.78 | -9.013 | 4.918 | -64.34 |
| `CCCn1cc(C(=O)NCCC(=O)NC2CCCCC2)c(C)n1` | 0.9732 | 3.518 | 15.2 | -20.57 |
| `COC(=O)C1CCCN1Cc1ccco1` (stereo not shown) | 9.109 | 8.333 | -33.33 | - |
| `COc1ccccc1OCCn1c(C)c(C)oc1=O` | 1.093 | 7.2 | 15.04 | 17.1 |
| `[H][C@@]12CCN(c3ncccn3)C[C@@]1([H])[C@H](C(=O)NC(C)C)CCO2` | 0.5342 | - | - | 12.9 |
| `CC(C)Oc1ncc(C(=O)N2CCCC(C(=O)O)C2)cc1Cl` (stereo not shown) | 5.631 | 0 | 12.8 | -26.56 |
| `O=C(CCNC(=O)c1ccoc1)Nc1cc(F)cc(F)c1` | 2.548 | 0.8403 | 3.306 | 15.12 |
| `COCC1CCN(CCOc2ccc(C#N)cc2OC)CC1` | -2.21 | 1.961 | 12.61 | -60.37 |
| `CC[C@H]1CN(C(=O)CCn2c(C)cccc2=O)CC[C@@]1(C)O` | -10.49 | 3.191 | 10 | -8.321 |
| `CCS(=O)(=O)N1CCC2(CC1)CN(c1ccsc1)C(=O)CO2` | 6.781 | 2.941 | 12 | -31.03 |
| `Cc1ccc(OCCC(=O)N2CCCC(n3nc(C)nc3C)C2)cc1` (stereo not shown) | -1.829 | -1.724 | 3.478 | 3.18 |
| `Cn1ncc2c(N3CC(N4CCCCC4)C3)nc(C3CCCC3)nc21` | 4.159 | 3.96 | 23.29 | -31.56 |
| `CC(C)[C@@H](N)C(=O)NCc1cccnc1N1CCc2ccccc2C1` | -3.246 | 7.447 | 10 | -26.94 |
| `Cc1ccc(-c2ccc(C(=O)NCC(N)=O)c(F)c2)cc1` | -1.857 | 1.786 | 9.677 | -29.23 |
| `CCOc1cc(CNCC2CN(C3CC3)CCO2)ccc1OC` (stereo not shown) | 11.59 | 3.96 | 9.783 | 6.507 |
| `CN1CCN(c2cnn(Cc3ccc(S(C)(=O)=O)cc3)c(=O)c2)CC1` | -4.284 | 4.819 | 6 | -12.4 |
| `COc1cc(C(=O)NC(C)c2cccs2)cc2c1OCCO2` (stereo not shown) | 2.955 | 11.67 | 8.108 | 6.204 |
| `COCC1COCCC12CCN(CCc1ccccc1)CC2` (stereo not shown) | - | -0.5348 | 1.923 | - |
| `COCCN1CCOCC12CCN(C(=O)Cc1cccs1)CC2` | - | 0 | 22 | - |
| `Cl.N#Cc1cnc2ccccc2c1N1CCN(CCC(=O)O)CC1` | 5.109 | - | - | -25.22 |
| `COC(C)(C)CC(C)NC(=O)NC1CCN(Cc2ccccn2)CC1` (stereo not shown) | -0.9363 | 6.952 | -0.5236 | -35.56 |
| `Cc1ccccc1OCC(=O)NCC(c1ccc(N(C)C)cc1)N(C)C` (stereo not shown) | 16.68 | 4 | 6.849 | -15.59 |
| `O=C(CCn1ccc(=O)[nH]c1=O)N1CCC(Oc2ccccn2)CC1` | -10.17 | 2.062 | 5.217 | 6.544 |

Repeated from the top, 3 entries:

Compound,Toxoplasma,TcHisRS,LiHisRS,T. brucei
COCCO[C@H]1CCN(C(=O)c2cc(C)on2)[C@H]1Cc1ccccc1,3.168,2.256,14.63,2.559
CN(C)C(=O)COCC1CN(Cc2ccoc2)Cc2ncn(C)c21.O=C(O)C(F)(F)F.O=C(O)C(F)(F)F (stereo not shown),-13.96,-,-,-34.83
CS(=O)(=O)NCC1CCCN(Cc2ccccc2F)C1 (stereo not shown),8.721,2.762,0,-12.86